Results published in the supplement of paper PMC10849652.
This is one part of the list.

Amino acid sequences for entries named in this document (tags omitted). A change or cut given only in a name is not applied to a line headed by its entry.
UniProt Q6UX07: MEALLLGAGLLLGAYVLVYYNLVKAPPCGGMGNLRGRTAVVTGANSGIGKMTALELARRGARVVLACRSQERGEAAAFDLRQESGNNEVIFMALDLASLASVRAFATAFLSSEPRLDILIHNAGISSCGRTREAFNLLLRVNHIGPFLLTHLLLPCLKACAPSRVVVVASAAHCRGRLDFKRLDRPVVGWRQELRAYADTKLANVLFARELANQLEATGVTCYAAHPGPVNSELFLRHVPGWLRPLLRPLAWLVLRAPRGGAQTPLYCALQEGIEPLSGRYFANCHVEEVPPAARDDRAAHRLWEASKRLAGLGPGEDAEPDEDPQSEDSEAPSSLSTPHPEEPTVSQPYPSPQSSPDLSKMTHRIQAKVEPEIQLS
UniProt Q96DT5: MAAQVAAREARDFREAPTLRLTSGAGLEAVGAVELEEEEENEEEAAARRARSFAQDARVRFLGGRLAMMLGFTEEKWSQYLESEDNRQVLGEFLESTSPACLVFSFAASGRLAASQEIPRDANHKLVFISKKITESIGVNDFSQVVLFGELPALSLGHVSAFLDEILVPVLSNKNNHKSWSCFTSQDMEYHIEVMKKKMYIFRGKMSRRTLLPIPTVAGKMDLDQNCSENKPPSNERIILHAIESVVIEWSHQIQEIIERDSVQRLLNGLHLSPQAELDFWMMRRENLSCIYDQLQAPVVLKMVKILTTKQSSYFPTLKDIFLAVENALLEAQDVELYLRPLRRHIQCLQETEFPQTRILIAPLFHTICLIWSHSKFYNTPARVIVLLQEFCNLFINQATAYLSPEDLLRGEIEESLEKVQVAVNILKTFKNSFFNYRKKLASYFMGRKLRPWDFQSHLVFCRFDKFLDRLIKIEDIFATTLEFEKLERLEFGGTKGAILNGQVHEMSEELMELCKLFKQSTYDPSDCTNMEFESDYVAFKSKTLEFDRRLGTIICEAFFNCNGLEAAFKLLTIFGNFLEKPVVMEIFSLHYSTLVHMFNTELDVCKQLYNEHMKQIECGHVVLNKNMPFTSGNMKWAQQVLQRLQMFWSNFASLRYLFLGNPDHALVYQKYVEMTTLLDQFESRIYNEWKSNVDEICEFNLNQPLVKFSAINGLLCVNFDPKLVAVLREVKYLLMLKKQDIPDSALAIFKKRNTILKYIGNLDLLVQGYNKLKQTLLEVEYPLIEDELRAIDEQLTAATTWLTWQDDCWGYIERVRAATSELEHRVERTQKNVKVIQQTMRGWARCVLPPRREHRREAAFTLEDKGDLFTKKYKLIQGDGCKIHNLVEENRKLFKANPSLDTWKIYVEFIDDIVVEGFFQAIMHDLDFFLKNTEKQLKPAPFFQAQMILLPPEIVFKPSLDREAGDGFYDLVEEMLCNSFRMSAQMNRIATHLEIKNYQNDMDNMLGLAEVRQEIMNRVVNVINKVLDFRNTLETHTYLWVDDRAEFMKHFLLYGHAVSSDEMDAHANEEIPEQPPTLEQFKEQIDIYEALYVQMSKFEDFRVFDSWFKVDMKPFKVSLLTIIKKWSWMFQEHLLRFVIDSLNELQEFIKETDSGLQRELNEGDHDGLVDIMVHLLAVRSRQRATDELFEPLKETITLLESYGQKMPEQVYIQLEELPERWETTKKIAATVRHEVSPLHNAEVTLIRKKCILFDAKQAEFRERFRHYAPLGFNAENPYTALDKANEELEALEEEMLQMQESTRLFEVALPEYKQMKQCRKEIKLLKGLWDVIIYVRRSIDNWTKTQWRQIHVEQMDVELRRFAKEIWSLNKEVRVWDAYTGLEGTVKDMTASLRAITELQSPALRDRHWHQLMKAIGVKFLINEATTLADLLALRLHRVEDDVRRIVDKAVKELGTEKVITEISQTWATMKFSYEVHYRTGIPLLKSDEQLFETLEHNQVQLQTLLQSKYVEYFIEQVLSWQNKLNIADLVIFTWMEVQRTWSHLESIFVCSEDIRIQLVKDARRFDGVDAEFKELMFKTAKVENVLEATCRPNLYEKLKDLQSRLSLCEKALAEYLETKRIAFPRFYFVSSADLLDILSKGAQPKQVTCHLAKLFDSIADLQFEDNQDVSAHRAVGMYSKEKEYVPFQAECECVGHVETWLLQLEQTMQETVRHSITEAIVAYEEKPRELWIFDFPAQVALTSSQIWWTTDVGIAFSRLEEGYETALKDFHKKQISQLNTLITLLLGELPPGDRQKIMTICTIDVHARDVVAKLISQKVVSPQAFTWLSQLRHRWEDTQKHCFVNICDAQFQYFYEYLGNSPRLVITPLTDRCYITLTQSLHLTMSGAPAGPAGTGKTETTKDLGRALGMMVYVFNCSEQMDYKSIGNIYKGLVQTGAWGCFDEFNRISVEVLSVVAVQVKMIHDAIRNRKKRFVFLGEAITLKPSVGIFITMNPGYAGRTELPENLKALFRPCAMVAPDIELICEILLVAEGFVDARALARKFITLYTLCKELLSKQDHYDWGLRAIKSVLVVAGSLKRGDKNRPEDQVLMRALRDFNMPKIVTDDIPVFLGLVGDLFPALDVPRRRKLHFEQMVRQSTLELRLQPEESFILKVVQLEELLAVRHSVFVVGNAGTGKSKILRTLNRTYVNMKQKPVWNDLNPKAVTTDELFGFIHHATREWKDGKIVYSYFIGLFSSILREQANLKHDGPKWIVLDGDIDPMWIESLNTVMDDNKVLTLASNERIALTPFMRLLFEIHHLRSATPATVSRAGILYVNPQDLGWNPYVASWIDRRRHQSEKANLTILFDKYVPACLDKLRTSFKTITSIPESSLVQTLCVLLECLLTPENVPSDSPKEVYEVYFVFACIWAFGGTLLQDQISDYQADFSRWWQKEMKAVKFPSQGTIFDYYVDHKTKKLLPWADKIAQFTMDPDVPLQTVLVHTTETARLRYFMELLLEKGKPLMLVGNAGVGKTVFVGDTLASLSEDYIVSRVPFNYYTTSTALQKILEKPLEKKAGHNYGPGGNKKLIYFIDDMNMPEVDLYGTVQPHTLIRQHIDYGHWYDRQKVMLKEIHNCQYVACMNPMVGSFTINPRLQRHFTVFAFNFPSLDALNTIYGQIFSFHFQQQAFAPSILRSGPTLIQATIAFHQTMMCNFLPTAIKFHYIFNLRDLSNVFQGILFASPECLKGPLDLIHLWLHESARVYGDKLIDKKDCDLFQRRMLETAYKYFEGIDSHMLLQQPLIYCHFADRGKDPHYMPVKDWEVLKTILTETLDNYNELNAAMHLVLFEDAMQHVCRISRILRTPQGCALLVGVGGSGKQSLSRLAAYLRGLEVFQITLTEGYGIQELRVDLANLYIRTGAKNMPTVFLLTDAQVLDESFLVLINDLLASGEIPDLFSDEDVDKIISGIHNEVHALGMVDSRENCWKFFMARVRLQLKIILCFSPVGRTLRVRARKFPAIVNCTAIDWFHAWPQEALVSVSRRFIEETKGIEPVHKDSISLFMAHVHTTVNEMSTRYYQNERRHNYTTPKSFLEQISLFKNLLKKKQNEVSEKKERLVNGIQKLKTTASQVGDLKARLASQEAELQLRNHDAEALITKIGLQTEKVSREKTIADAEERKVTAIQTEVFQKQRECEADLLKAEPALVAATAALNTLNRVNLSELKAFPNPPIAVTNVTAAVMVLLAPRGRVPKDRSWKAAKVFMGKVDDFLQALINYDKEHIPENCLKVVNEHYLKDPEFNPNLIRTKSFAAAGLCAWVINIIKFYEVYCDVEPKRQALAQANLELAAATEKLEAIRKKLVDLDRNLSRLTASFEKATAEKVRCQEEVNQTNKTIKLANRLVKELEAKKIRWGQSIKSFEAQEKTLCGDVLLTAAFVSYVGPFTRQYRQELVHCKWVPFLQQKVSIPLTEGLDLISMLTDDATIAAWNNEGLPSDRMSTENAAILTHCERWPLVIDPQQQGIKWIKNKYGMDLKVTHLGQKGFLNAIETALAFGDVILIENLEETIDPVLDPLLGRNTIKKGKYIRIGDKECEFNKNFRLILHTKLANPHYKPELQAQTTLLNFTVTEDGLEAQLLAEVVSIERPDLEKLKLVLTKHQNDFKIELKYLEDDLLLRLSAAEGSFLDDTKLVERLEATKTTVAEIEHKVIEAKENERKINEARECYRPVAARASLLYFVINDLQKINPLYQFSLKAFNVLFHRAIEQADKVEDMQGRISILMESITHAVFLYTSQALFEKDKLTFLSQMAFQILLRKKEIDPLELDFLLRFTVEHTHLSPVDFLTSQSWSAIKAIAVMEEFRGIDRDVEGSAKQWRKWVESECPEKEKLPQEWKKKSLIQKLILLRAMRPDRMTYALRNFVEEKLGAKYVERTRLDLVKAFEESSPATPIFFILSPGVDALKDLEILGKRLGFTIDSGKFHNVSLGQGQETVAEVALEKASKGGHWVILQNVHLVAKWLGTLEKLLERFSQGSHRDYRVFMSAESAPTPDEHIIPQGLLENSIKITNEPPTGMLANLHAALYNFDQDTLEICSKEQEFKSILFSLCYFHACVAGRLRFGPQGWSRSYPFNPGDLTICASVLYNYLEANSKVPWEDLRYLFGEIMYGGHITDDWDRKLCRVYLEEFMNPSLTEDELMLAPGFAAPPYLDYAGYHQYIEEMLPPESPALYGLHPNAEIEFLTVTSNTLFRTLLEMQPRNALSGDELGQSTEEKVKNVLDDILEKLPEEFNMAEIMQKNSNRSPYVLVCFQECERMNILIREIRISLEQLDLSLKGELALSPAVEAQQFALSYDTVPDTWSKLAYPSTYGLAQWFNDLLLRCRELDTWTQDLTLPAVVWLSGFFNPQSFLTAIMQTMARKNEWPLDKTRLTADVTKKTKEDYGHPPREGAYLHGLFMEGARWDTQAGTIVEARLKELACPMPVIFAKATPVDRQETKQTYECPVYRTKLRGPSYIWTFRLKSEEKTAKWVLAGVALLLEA
UniProt O76075: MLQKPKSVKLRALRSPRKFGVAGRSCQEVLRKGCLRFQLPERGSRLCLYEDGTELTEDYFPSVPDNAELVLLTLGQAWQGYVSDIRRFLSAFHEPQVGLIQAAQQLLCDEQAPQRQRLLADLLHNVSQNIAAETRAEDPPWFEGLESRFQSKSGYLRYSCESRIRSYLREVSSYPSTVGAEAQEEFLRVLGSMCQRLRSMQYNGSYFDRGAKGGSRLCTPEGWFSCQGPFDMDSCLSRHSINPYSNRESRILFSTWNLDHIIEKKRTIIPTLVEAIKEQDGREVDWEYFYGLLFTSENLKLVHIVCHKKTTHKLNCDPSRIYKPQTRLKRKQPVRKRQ
UniProt Q16531, whole entry, looked up: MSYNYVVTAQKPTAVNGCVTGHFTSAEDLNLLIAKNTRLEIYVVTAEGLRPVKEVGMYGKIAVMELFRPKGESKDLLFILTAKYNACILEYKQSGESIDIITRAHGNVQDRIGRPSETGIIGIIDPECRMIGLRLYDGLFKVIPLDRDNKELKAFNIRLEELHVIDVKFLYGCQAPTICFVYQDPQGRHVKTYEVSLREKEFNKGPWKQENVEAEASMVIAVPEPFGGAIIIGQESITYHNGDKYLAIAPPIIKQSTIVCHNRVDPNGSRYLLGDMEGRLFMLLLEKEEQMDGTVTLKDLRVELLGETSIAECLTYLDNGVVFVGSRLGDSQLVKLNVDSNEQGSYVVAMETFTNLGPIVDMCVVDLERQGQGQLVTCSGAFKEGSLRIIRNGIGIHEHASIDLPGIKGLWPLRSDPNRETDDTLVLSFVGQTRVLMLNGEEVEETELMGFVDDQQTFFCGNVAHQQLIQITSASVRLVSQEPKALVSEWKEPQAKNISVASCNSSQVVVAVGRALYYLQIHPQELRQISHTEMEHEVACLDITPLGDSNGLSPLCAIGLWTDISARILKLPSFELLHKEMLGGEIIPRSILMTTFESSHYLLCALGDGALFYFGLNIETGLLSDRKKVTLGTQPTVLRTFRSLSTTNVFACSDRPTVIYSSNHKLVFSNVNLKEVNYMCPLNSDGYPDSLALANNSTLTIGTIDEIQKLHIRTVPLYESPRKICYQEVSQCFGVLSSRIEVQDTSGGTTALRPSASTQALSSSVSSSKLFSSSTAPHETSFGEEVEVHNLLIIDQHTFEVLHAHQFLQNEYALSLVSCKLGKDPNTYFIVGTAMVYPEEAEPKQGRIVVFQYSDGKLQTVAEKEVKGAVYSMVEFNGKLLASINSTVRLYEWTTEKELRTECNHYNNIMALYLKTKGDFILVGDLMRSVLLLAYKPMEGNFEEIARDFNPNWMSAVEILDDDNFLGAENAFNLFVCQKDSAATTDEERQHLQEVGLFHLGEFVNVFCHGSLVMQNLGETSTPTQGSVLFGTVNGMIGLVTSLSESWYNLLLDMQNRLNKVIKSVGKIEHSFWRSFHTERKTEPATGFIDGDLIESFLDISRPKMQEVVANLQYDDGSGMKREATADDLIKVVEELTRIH

Assays:
Assay in all cases: log2 fold change, soluble protein after heating vs DMSO (PISA); higher = thermal stabilisation; K562 cells, 10 uM, 30 min; active = over 0.2 and 3.5 SD of the protein, either way, in both replicates (recomputed)
[1] = compound: CS(=O)(=O)c1ccc(-c2cnc(N)c(C(=O)Nc3ccccc3)n2)cc1
Method in brief: (§1)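 K562 cells at 2×10^6 cells/mL were treated with 10 μM compound for 30 min. Aliquots were heated for 3 min across 48°C-58°C, pooled, and extracted in PBS with 0.5% NP-40 at 4°C; soluble protein was the supernatant after 21,000xg for 90 min. Soluble protein was quantified by TMTpro 16plex LC-MS/MS with channel sums equalised, and reported as log2 fold change in thermal stability against DMSO controls, with values from duplicates.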

[2] = compound: C[C@@H](Oc1cc(-c2cnn(C3CCNCC3)c2)cnc1N)c1c(Cl)ccc(F)c1Cl [crizotinib]
Method in brief: as §1

[3] = compound: C[C@@H]1COCCN1C2=NC(=NC(=C2)C3(CC3)S(=O)(=O)C)C4=C5C=CNC5=CC=C4
Method in brief: as §1

[4] = compound: Cc1cc(SCc2sc(-c3ccc(C(F)(F)F)cc3)nc2C)ccc1OCC(=O)O
Method in brief: as §1

[5] = compound: Cc1ccc(-n2nc(C(C)(C)C)cc2NC(=O)Nc2ccc(OCCN3CCOCC3)c3ccccc23)cc1 [doramapimod]
Method in brief: as §1

[6] = compound: Cc1ccc(C(=O)N(CCCN)[C@@H](c2nc3cc(Cl)ccc3c(=O)n2Cc2ccccc2)C(C)C)cc1 [ispinesib]
Method in brief: as §1

[7] = compound: Cc1ccc(NC(=O)c2ccc(CN3CC[C@H](N(C)C)C3)c(C(F)(F)F)c2)cc1Nc1nccc(-c2cncnc2)n1 [bafetinib]
Method in brief: as §1

[8] = compound: Cc1cn(-c2cc(NC(=O)c3ccc(C)c(Nc4nccc(-c5cccnc5)n4)c3)cc(C(F)(F)F)c2)cn1 [nilotinib]
Method in brief: as §1

[9] = compound: Cc1nc(Nc2n[nH]c3c2CN(C(=O)N[C@H](CN(C)C)c2ccccc2)C3(C)C)c2sccc2n1
Method in brief: as §1

[10] = compound: Cc1nc(Nc2ncc(C(=O)Nc3c(C)cccc3Cl)s2)cc(N2CCN(CCO)CC2)n1 [dasatinib]
Method in brief: as §1

[11] = compound: Cc1ncc(-c2ccnc(Nc3ccc(S(C)(=O)=O)cc3)n2)n1C(C)C
Method in brief: as §1

[12] = compound: Cn1cc(-c2ccc3nnc(C(F)(F)c4ccc5ncccc5c4)n3n2)cn1
Method in brief: as §1

[13] = compound: Cn1cncc1[C@@](N)(c1ccc(Cl)cc1)c1ccc2c(c1)c(-c1cccc(Cl)c1)cc(=O)n2C [tipifarnib]
Method in brief: as §1

[14] = compound: FC(F)(F)c1ccc(/C=C/c2nc(COc3ccc(CCCCn4ccnn4)cc3)co2)cc1 [mubritinib]
Method in brief: as §1

[15] = compound: C[C@H](C1=CC=C(C=C1)C(=O)NC2=C3C=CNC3=NC=C2)N
Method in brief: as §1

[16] = compound: Cc1cc(Nc2cc(CN3CCOCC3)c3nc(C)c(Cc4ccc(Cl)cc4F)n3n2)n[nH]1 [gandotinib]
Method in brief: as §1

[17] = compound: Cc1cccc(CC(=O)N2CCc3c2ccc(-c2cn(C)c4ncnc(N)c24)c3F)n1
Method in brief: as §1

[18] = compound: Cn1cc(-c2ccc3c(c2)CCN3C(=O)Cc2cccc(C(F)(F)F)c2)c2c(N)ncnc21
Method in brief: as §1

[19] = compound: C[C@H](Nc1ncnc2nc[nH]c12)c1cc2cccc(Cl)c2c(=O)n1-c1ccccc1 [duvelisib]
Method in brief: as §1

[20] = compound: Cc1cc(Nc2cc(N3CCN(C)CC3)nc(Sc3ccc(NC(=O)C4CC4)cc3)n2)n[nH]1 [tozasertib]
Method in brief: as §1

In the case of DDX11 (UniProt Q96FC9), the log2 fold change [1] is reported as inactive: 0.02, the log2 fold change [2] is reported as inactive: -0.01 and the log2 fold change [3] is reported as inactive: -0.144. The log2 fold change [4] was inactive: 0.015, the log2 fold change [5] was inactive: 0.224 and the log2 fold change [6] was inactive: 0.012. The log2 fold change [7] was inactive: -0.012, the log2 fold change [8] was inactive: 0.098 and the log2 fold change [9] was inactive: 0.033. For the same target, the log2 fold change [10] was inactive: 0.061, the log2 fold change [11] was inactive: 0.098 and the log2 fold change [12] was inactive: -0.132. The log2 fold change [13] was inactive: 0.005 and the log2 fold change [14] was inactive: -0.015.

For DDX4 (UniProt Q9NQI0), the log2 fold change [1] was inactive: 0, the log2 fold change [2] was inactive: 0.018 and the log2 fold change [3] was inactive: 0.013. For the same target, the log2 fold change [15] was inactive: 0.544, the log2 fold change [16] was inactive: 0.112 and the log2 fold change [4] was inactive: -0.232. The log2 fold change [5] was inactive: -0.021, the log2 fold change [6] was inactive: -0.529 and the log2 fold change [7] was inactive: 0.244. For the same target, the log2 fold change [17] was inactive: -0.511, the log2 fold change [8] was inactive: -0.172 and the log2 fold change [9] was inactive: -0.187. For the same target, the log2 fold change [10] was inactive: 0.107, the log2 fold change [11] was inactive: -0.068 and the log2 fold change [18] was inactive: -0.217. For the same target, the log2 fold change [12] was inactive: 0.052, the log2 fold change [13] was inactive: 0.268 and the log2 fold change [14] was inactive: -0.484.

For DHRS13 (UniProt Q6UX07), the log2 fold change [1] was inactive: 0.107, the log2 fold change [2] was inactive: 0.127 and the log2 fold change [15] was inactive: 0.058. For the same target, the log2 fold change [16] was inactive: 0.064, the log2 fold change [4] was inactive: 0.139 and the log2 fold change [5] was inactive: 0.123. The log2 fold change [6] was inactive: -0.034, the log2 fold change [17] was inactive: -0.208 and the log2 fold change [8] was inactive: 0.197. The log2 fold change [9] was inactive: -0.153, the log2 fold change [10] was inactive: 0.005 and the log2 fold change [11] was inactive: -0.106. The log2 fold change [18] was inactive: 0.021, the log2 fold change [12] was inactive: -0.168 and the log2 fold change [14] was inactive: 0.049.

With DNAH11 (UniProt Q96DT5) the log2 fold change [1] was inactive: -0.054, the log2 fold change [2] was inactive: 0.071 and the log2 fold change [3] was inactive: 0.062. The log2 fold change [15] was active: 0.695, the log2 fold change [16] was inactive: 0.104 and the log2 fold change [4] was inactive: -0.069. For the same target, the log2 fold change [5] was inactive: 0.037, the log2 fold change [6] was inactive: -0.125 and the log2 fold change [7] was inactive: 0.097. For the same target, the log2 fold change [17] was inactive: -0.396, the log2 fold change [8] was inactive: 0.101 and the log2 fold change [9] was inactive: 0.015. For the same target, the log2 fold change [10] was inactive: -0.036, the log2 fold change [11] was inactive: 0.072 and the log2 fold change [18] was inactive: -0.441. For the same target, the log2 fold change [12] was inactive: 0.126, the log2 fold change [13] was inactive: 0.344 and the log2 fold change [14] was inactive: -0.276.

In the case of DICER1 (UniProt Q9UPY3), the log2 fold change [1] is reported as inactive: -0.017, the log2 fold change [3] is reported as inactive: -0.173 and the log2 fold change [15] is reported as inactive: 0.265. The log2 fold change [19] was inactive: -0.18, the log2 fold change [16] was inactive: 0.08 and the log2 fold change [20] was inactive: 0.135. For the same target, the log2 fold change [4] was inactive: 0.166, the log2 fold change [6] was inactive: 0 and the log2 fold change [7] was inactive: 0.123. The log2 fold change [17] was inactive: -0.105, the log2 fold change [8] was inactive: -0.017 and the log2 fold change [9] was inactive: -0.02. For the same target, the log2 fold change [10] was inactive: 0.108, the log2 fold change [11] was inactive: -0.03 and the log2 fold change [18] was inactive: -0.141. The log2 fold change [12] was inactive: -0.149, the log2 fold change [13] was inactive: 0.173 and the log2 fold change [14] was inactive: 0.035.

In the case of DHRS1 (UniProt Q96LJ7), the log2 fold change [1] is reported as inactive: 0.009, the log2 fold change [2] is reported as inactive: 0.248 and the log2 fold change [3] is reported as inactive: 0.089. The log2 fold change [15] was inactive: -0.028, the log2 fold change [16] was inactive: 0.297 and the log2 fold change [4] was inactive: 0.571. For the same target, the log2 fold change [5] was inactive: 0.557, the log2 fold change [6] was inactive: 0.247 and the log2 fold change [7] was inactive: 0.352. The log2 fold change [17] was inactive: 0.316, the log2 fold change [8] was inactive: 0.638 and the log2 fold change [9] was inactive: -0.076. The log2 fold change [10] was inactive: 0.02, the log2 fold change [11] was inactive: -0.14 and the log2 fold change [18] was active: 1.1. For the same target, the log2 fold change [12] was inactive: -0.106, the log2 fold change [13] was inactive: 0.717 and the log2 fold change [14] was inactive: 0.178.

For DGKE (UniProt P52429), the log2 fold change [1] was inactive: -0.001, the log2 fold change [2] was inactive: -0.24 and the log2 fold change [15] was inactive: -0.037. The log2 fold change [20] was inactive: 0.114, the log2 fold change [5] was inactive: 0.016 and the log2 fold change [7] was inactive: -0.081. For the same target, the log2 fold change [8] was inactive: 0.15, the log2 fold change [9] was inactive: -0.215 and the log2 fold change [11] was inactive: -0.189. The log2 fold change [18] was inactive: 0.018, the log2 fold change [13] was inactive: 0.185 and the log2 fold change [14] was inactive: -0.066.

In the case of DFFB (UniProt O76075), the log2 fold change [1] is reported as inactive: 0.018, the log2 fold change [2] is reported as inactive: 0.072 and the log2 fold change [3] is reported as inactive: 0.012. For the same target, the log2 fold change [15] was inactive: 0.106, the log2 fold change [16] was inactive: -0.017 and the log2 fold change [4] was inactive: -0.012. The log2 fold change [5] was inactive: -0.021, the log2 fold change [6] was inactive: -0.006 and the log2 fold change [7] was inactive: 0.042. For the same target, the log2 fold change [17] was inactive: -0.032, the log2 fold change [8] was inactive: -0.047 and the log2 fold change [9] was inactive: -0.156. For the same target, the log2 fold change [10] was inactive: -0.057, the log2 fold change [11] was inactive: 0.056 and the log2 fold change [18] was inactive: -0.053. For the same target, the log2 fold change [12] was inactive: 0.002, the log2 fold change [13] was inactive: -0.072 and the log2 fold change [14] was inactive: 0.019.

With DDB1 (UniProt Q16531) the log2 fold change [1] was inactive: 0.005, the log2 fold change [2] was inactive: 0.033 and the log2 fold change [3] was inactive: 0.026. For the same target, the log2 fold change [15] was inactive: -0.039, the log2 fold change [16] was inactive: -0.028 and the log2 fold change [4] was inactive: -0.037. The log2 fold change [5] was inactive: -0.033, the log2 fold change [6] was inactive: 0.009 and the log2 fold change [7] was inactive: -0.019. For the same target, the log2 fold change [17] was inactive: -0.025, the log2 fold change [8] was inactive: -0.004 and the log2 fold change [9] was inactive: 0.027. The log2 fold change [10] was inactive: 0.046, the log2 fold change [11] was inactive: -0.016 and the log2 fold change [18] was inactive: 0.011. The log2 fold change [12] was inactive: -0.001, the log2 fold change [13] was inactive: -0.014 and the log2 fold change [14] was inactive: 0.023.
